PubChem BioAssay AID1224828 | NIAID – 2016
The deposit covers about 17,000 reagents; this is a random part of them. 762 of them (4.5%) were called active. 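Active calls include both raised and lowered p65 entry, mostly lowered; wells with fewer than 50 cells lack a z-score.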 Raw values vary from plate to plate and are shown uncorrected. Reagents against one gene are numbered here. No sequences are given here.

Screen: 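Knock-downs that increase or decrease LPS-induced p65 nuclear translocation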 (primary screen)
Cells: mouse RAW264.7 G9 macrophage reporter cells (GFP-p65, Tnf promoter-mCherry)
Knock-down reagent: siRNA pool against mouse genes, 100 nM
Time to read-out: 2 days siRNA transfection, then 40 min LPS before fixation
Challenge: LPS (Salmonella minnesota R595) at 10 ng/ml
Detection: 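Microscopy ratio of nuclear to perinuclear-ring GFP-p65 signal, scaled to the plate median; gene score is the average of two replicate robust z-scores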
Scale: p65 translocation robust z-score: higher = more nuclear NF-kappaB p65 after LPS than the plate median; nuclear/cytoplasmic p65 ratio: higher = more nuclear NF-kappaB p65
Active means: 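Active if robust z is above 3.3 (negative regulators) or below -1.56, the Tlr4 control median (positive regulators); activity score 50 or more; control wells not called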
Meaning of the calls: active = hit (p65 shift raised or lowered); inactive = no clear change

no.	Gene	reagent	p65 translocation robust z-score	nuclear/cytoplasmic p65 ratio, rep 1	nuclear/cytoplasmic p65 ratio, rep 2	low cell count flag	activity call
1	Mrap (GeneID 77037)	1	1.41	1.63	1.75	enough cells to score	inactive
2	Cntn4 (GeneID 269784)	1	0.6	1.65	1.92	enough cells to score	inactive
3	Pglyrp1 (GeneID 21946)	1	1.03	1.67	1.51	enough cells to score	inactive
4	Vmn1r83 (GeneID 171243)	1	-0.32	1.3	1.24	enough cells to score	inactive
5	Agpat2 (GeneID 67512)	1	0.31	1.63	1.7	enough cells to score	inactive
6	Chmp4b (GeneID 75608)	1		2.08	1.09	fewer than 50 cells per well; well left out of scoring	inactive
7	Nkiras2 (GeneID 71966)	1	-0.1	1.56	1.29	enough cells to score	inactive
8	9930038B18Rik (GeneID 319503)	1	-1.46	1.26	1.3	enough cells to score	inactive
9	Or1j13 (GeneID 258952)	1	-0.18	1.49	1.48	enough cells to score	inactive
10	Slc8b1 (GeneID 170756)	1	0.06	1.38	1.29	enough cells to score	inactive
11	Eif3b (GeneID 27979)	1	0.95	1.65	1.44	enough cells to score	inactive
12	Rnps1 (GeneID 19826)	1	1.06	1.55	1.34	enough cells to score	inactive
13	Cfl1 (GeneID 12631)	1	0.19	1.61	1.83	enough cells to score	inactive
14	Rnh1 (GeneID 107702)	1	-0.86	1.43	1.36	enough cells to score	inactive
15	Ap5m1 (GeneID 74385)	1		1.12	1.14	fewer than 50 cells per well; well left out of scoring	inactive
16	Pnlip (GeneID 69060)	1	0.23	1.63	1.34	enough cells to score	inactive
17	Lhcgr (GeneID 16867)	1	-0.06	1.47	1.6	enough cells to score	inactive
18	Hcfc1 (GeneID 15161)	1	0.18	1.49	1.37	enough cells to score	inactive
19	Ube2l3 (GeneID 22195)	1	-0.52	1.39	1.48	enough cells to score	inactive
20	Zar1 (GeneID 317755)	1	1.3	1.5	1.4	enough cells to score	inactive
21	Dixdc1 (GeneID 330938)	1	2.44	1.9	1.58	enough cells to score	inactive
22	Snrk (GeneID 20623)	1	-0.39	1.53	1.33	enough cells to score	inactive
23	Gpha2 (GeneID 170458)	1	0.15	1.63	1.58	enough cells to score	inactive
24	Ptgfr (GeneID 19220)	1	-1.6	1.28	1.36	enough cells to score	active
25	Trmt10c (GeneID 52575)	1	0.5	1.49	1.29	enough cells to score	inactive
26	Pdc (GeneID 20028)	1	-0.55	1.43	1.66	enough cells to score	inactive
27	Wasf2 (GeneID 242687)	1	-0.81	1.44	1.44	enough cells to score	inactive
28	Cplx1 (GeneID 12889)	1	-1.52	1.38	1.5	enough cells to score	inactive
29	Zfp524 (GeneID 66056)	1		1.15	1.18	fewer than 50 cells per well; well left out of scoring	inactive
30	Fscn1 (GeneID 14086)	1	0.77	1.5	1.5	enough cells to score	inactive
31	Crybg3 (GeneID 224273)	1	1.81	1.67	1.78	enough cells to score	inactive
32	Arhgdig (GeneID 14570)	1	-0.05	1.59	1.63	enough cells to score	inactive
33	Ndufb9 (GeneID 66218)	1	-0.93	1.64	1.44	enough cells to score	inactive
34	Msgn1 (GeneID 56184)	1	-1.01	1.6	1.46	enough cells to score	inactive
35	Crygc (GeneID 12966)	1	-0.38	1.51	1.25	enough cells to score	inactive
36	Krtap3-3 (GeneID 66380)	1	0.45	1.52	1.58	enough cells to score	inactive
37	Myl7 (GeneID 17898)	1	-0.22	1.39	1.33	enough cells to score	inactive
38	Chst9 (GeneID 71367)	1	0.6	1.73	1.84	enough cells to score	inactive
39	Vmn1r58 (GeneID 81014)	1	0.62	1.44	1.3	enough cells to score	inactive
40	Caskin2 (GeneID 140721)	1	-2.65	1.25	1.29	enough cells to score	active
41	Or4a73 (GeneID 258788)	1	1.94	1.9	1.6	enough cells to score	inactive
42	Ylpm1 (GeneID 56531)	1	-0.58	1.28	1.23	enough cells to score	inactive
43	Sdhaf2 (GeneID 66072)	1	1.19	1.68	1.63	enough cells to score	inactive
44	Wee1 (GeneID 22390)	1		1.86	1.64	fewer than 50 cells per well; well left out of scoring	inactive
45	Slco1c1 (GeneID 58807)	1		1.62	1.36	fewer than 50 cells per well; well left out of scoring	inactive
46	Chmp4c (GeneID 66371)	1		1.25	1.47	fewer than 50 cells per well; well left out of scoring	inactive
47	Mypn (GeneID 68802)	1	-1.78	1.31	1.19	enough cells to score	active
48	Vmn1r81 (GeneID 171244)	1		1.22	0.908	fewer than 50 cells per well; well left out of scoring	inactive
49	Cnot7 (GeneID 18983)	1	0.04	1.47	1.38	enough cells to score	inactive
50	Agpat1 (GeneID 55979)	1	-0.48	1.57	1.53	enough cells to score	inactive
51	Tbx18 (GeneID 76365)	1	0.24	1.55	1.56	enough cells to score	inactive
52	Tgm3 (GeneID 21818)	1		1.55	1.4	fewer than 50 cells per well; well left out of scoring	inactive
53	S1pr3 (GeneID 13610)	1	0.49	1.47	1.76	enough cells to score	inactive
54	Or2d4 (GeneID 258594)	1		1.39	1.18	fewer than 50 cells per well; well left out of scoring	inactive
55	Dnai7 (GeneID 320662)	1	0.52	1.69	1.84	enough cells to score	inactive
56	H2-T22 (GeneID 15039)	1	1.55	1.96	1.69	enough cells to score	inactive
57	H2-T22 (GeneID 15039)	2	-2.2	1.55	1.24	enough cells to score	active
58	H2-T22 (GeneID 15039)	3	1	1.91	1.58	enough cells to score	inactive
59	Galnt2 (GeneID 108148)	1	-0.84	1.55	1.27	enough cells to score	inactive

Copied from the listing, 6 entries:
no.	Gene	reagent	p65 translocation robust z-score	nuclear/cytoplasmic p65 ratio, rep 1	nuclear/cytoplasmic p65 ratio, rep 2	low cell count flag	activity call
46	Chmp4c (GeneID 66371)	1		1.25	1.47	fewer than 50 cells per well; well left out of scoring	inactive
47	Mypn (GeneID 68802)	1	-1.78	1.31	1.19	enough cells to score	active
48	Vmn1r81 (GeneID 171244)	1		1.22	0.908	fewer than 50 cells per well; well left out of scoring	inactive
49	Cnot7 (GeneID 18983)	1	0.04	1.47	1.38	enough cells to score	inactive
50	Agpat1 (GeneID 55979)	1	-0.48	1.57	1.53	enough cells to score	inactive
51	Tbx18 (GeneID 76365)	1	0.24	1.55	1.56	enough cells to score	inactive
